Laboratory results reported in patent US20190015400A1, “Antifungal Compositions” (priority 2017, published 2019).

Assays:
[1] = tested on: C. glabrata ATCC 2001 (strain H); test: MIC and checkerboard assay, azoles + antihistamines; type: cell-based, Candida glabrata
Experimental: (§1) Determination of minimum inhibitory concentration (MIC) values. MIC values were recorded for all antifungals and antihistamines in order to determine the concentration range of compounds to be used in the checkerboard assays.
(§2) The MIC assays were done using the broth microdilution method as described in CLSI document M27-A3 with minor modifications. Yeast cultures were started by picking a colony from a PDA plate stored at 4° C. The colonies were grown in YEPD medium overnight at 35° C. with shaking at 200 rpm. In a 96-well plate compounds were diluted lengthwise along the plate in serial 2-fold dilutions in the RPMI 1640 medium. The yeast cultures were diluted in RPMI 1640 medium to an OD600 within the range of 0.12 and 0.15 (˜1×10^6 cells/mL). The fungal cells were further diluted by taking 25 μL of fungal cells and adding them to 10 mL of RPMI 1640 medium before adding 100 μL to plate (200 μL total volume). The plates were incubated at 35° C. for 48 h. Visual inspection of the wells for no growth was used to determine the MIC. All compounds were tested in duplicate (TABLES 6 and 7).
(§3) Checkerboard assays were done as previously described to determine the fractional inhibitory concentration index (FICI). 2-fold dilutions of the azole drug were made in RPMI 1640 medium lengthwise along the plate. […] The FICI was calculated based on the formula below. […]

[2] = tested on: 13 Candida spp. strains (strains A-M); test: MIC and checkerboard assay, azoles + antihistamines, panel; type: cell-based; settings: synergistic POS + EBA combinations; MIC of the labelled drug
Experimental: as §1, §2, §3

[3] = tested on: C. albicans ATCC 10231 (strain B); test: Time-kill assay, POS and EBA; type: cell-based, Candida albicans; settings: drug alone at concentration used in MICcombination
Experimental: (§4) The protocol for time-kill assays followed methods previously described with minor modifications. Yeast cultures were grown overnight in YEPD medium at 35° C. with shaking at 200 rpm. A working stock of fungal cells was made by diluting cultures in 1640 medium to an OD600 of 0.125 (˜1×10^6 CFU/mL). From the working stock, 100 μL of cells was added to 4.9 mL of RPMI 1640 medium in sterile culture tubes, making the starting fungal cell concentration ˜1×10^5 CFU/mL. Drug was then added to the fungal cells. […] Treated fungal cultures were incubated in the culture tubes at 35° C. with 200 rpm shaking for 24 h. Samples were aliquoted from the different treatments at regular time points (0, 3, 6, 9, 12, and 24 h) and plated in duplicate. For each time point, cultures were vortexed, 100 μL of culture was aspirated, and 10-fold serial dilutions were made in sterile ddH2O. From the appropriate dilutions, 100 μL of fungal suspension was spread on PDA plates and incubated at 35° C. for 48 h before colony counts were determined. At 24 h, 50 μL of 1 mM resazurin in phosphate buffered saline (PBS) was added to the treatments and incubated at 35° C. with 200 rpm shaking for 2 h in the dark for visual inspection. […]

[4] = tested on: C. glabrata ATCC 2001 (strain H); test: Time-kill assay, POS and EBA; type: cell-based, Candida glabrata; settings: drug alone at concentration used in MICcombination
Experimental: as §4

[5] = tested on: C. albicans ATCC 10231 (strain B) biofilm; test: Biofilm disruption assay (XTT, SMIC90), POS and EBA; type: cell-based, Candida albicans
Experimental: (§5) Biofilm disruption assays. […] Biofilm assays were performed in 96-well plates using XTT [2,3-bis(2-methoxy-4-nitro-5-sulfophenyl)-2H-tetrazolium-5-carboxanilide] to measure the viability of the biofilm as previously described. An overnight culture of yeast was grown at 35° C. in YEPD medium with shaking at 200 rpm. The overnight culture was diluted in RPMI 1640 medium to an OD600 between 0.12 and 0.15 to make a working stock. Working stock was transferred to the 96-well plate in 100 μL aliquots, leaving one column empty for the sterile control. The plates were incubated at 37° C. for 24 h to allow formation of the biofilm. The medium and planktonic cells from the plate were then aspirated. PBS was then used to wash any remaining planktonic cells off of the biofilm wells. 100 μL of PBS was aliquoted into wells and then removed. The wells were washed 3 times with PBS. […] Plates were incubated at 37° C. for 24 h. Finally, the plates were washed 3 times with PBS before adding 100 μL of XTT dye. The XTT was prepared by dissolving XTT at 0.5 mg/mL concentration in sterile PBS. Before adding to a plate, 1 μL of 10 mM menadione in acetone was added to 10 mL of the 0.5 mg/mL solution of XTT. After addition of XTT (containing menadione), the plates were incubated at 3 h at 37° C. in the dark. 80 μL of liquid from each well was transferred to a new plate. Plates were then read with a SpectraMax M5 plate reader (Molecular Devices, Sunnyvale, Calif., USA) for absorbance at 450 nm. For these experiments, we determined the sessile MIC (SMIC90), which is defined as the drug concentration required to inhibit the metabolic activity of biofilm by 90% compared to the growth control. The SMIC90 values were used to calculate the FICI as described above (TABLE 10). The plates used to determine the SMIC90 are provided in FIGS. 91A-H. Each assay was performed in duplicate.

[6] = tested on: C. albicans ATCC 64124 (strain F) biofilm; test: as above; type: cell-based, Candida albicans
Experimental: as §5

[7] = tested on: C. glabrata ATCC 2001 (strain H) biofilm; test: as above; type: cell-based, Candida glabrata
Experimental: as §5, with “After addition of XTT (containing menadione), the plates were incubated at 3 h at 37° C. in the dark. 80 μL of liquid from each well was transferred to a new plate.” left out, “For these experiments, we determined the sessile MIC (SMIC90), which is defined as the drug concentration required to inhibit the metabolic activity of biofilm by 90% compared to the growth control. The SMIC90 values were used to calculate the FICI as described above (TABLE 10). The plates used to determine the SMIC90 are provided in FIGS. 91A-H. Each assay was performed in duplicate.” left out

[8] = tested on: A549 cells; test: Mammalian cytotoxicity (resazurin cell viability), POS and EBA; type: cell-based, human; settings: drug alone
Experimental: (§6) To examine whether the inhibitory effect of the antifungal and antihistamine combinations is specific to fungal cells, the combinations were tested with 4 mammalian cell lines: A459, BEAS-2B, HEK-293, and HaCaT. […] The assays were done in 96-well plates. A549 and BEAS-2B cells were plated at a density of 3×10^3 cells/mL, HaCaT were plated at 2×10^4 cells/mL, and HEK-293 cells were plated at 1×10^4 cells/mL as determined by using a hemacytometer. […] All assays were done in quadruplicate.

[9] = tested on: BEAS-2B cells; test: as above; type: cell-based, human; settings: drug alone
Experimental: as §6

[10] = tested on: HEK-293 cells; test: as above; type: cell-based, human; settings: drug alone
Experimental: as §6

[11] = aqueous assay medium, from DMSO stock

CC(C)(C)c1ccc(C(=O)CCCN2CCC(OC(c3ccccc3)c3ccccc3)CC2)cc1 [EBA, ebastine]
MIC ([1]; Nakaseomyces glabratus, ATCC2001, drug alone): > 25 µg/mL | MIC in combination ([1]; combination POS + EBA, MIC of the labelled drug): 0.78 µg/mL | MIC in synergistic combinations [2]: 0.78 to 3.1 µg/mL | inhibition of fungal growth [3]: did not inhibit fungal growth | inhibition of fungal growth [4]: did not inhibit fungal growth | anti-biofilm activity of combination ([5]; POS with EBA): no activity | SMIC90 ([5]; drug alone): ≥ 25 µg/mL | anti-biofilm activity of combination ([6]; POS with EBA): no activity | SMIC90 ([6]; drug alone): ≥ 25 µg/mL | anti-biofilm activity of combination ([7]; POS with EBA): synergy | SMIC90 ([7]; drug alone): ≥ 25 µg/mL | maximum concentration with no observed toxicity (complete cell survival) [8]: 3.1 µg/mL | maximum concentration with no observed toxicity (complete cell survival) [9]: 3.1 µg/mL | maximum concentration with no observed toxicity (complete cell survival) [10]: 3.1 µg/mL | maximal concentration where no precipitation was observed [11]: 25 µg/mL
